Source: patent US20020035246A1
These are yes or no findings as the source states them, for the method shown. Some binding calls cover weakened binding; strength is not graded here.

The chains behind the UniProt entries cited, without tags or fusion partners. Where a name states a change or a piece, a line headed by the entry shows the natural chain unless it says otherwise. Residues count along the entry.
UniProt P04386: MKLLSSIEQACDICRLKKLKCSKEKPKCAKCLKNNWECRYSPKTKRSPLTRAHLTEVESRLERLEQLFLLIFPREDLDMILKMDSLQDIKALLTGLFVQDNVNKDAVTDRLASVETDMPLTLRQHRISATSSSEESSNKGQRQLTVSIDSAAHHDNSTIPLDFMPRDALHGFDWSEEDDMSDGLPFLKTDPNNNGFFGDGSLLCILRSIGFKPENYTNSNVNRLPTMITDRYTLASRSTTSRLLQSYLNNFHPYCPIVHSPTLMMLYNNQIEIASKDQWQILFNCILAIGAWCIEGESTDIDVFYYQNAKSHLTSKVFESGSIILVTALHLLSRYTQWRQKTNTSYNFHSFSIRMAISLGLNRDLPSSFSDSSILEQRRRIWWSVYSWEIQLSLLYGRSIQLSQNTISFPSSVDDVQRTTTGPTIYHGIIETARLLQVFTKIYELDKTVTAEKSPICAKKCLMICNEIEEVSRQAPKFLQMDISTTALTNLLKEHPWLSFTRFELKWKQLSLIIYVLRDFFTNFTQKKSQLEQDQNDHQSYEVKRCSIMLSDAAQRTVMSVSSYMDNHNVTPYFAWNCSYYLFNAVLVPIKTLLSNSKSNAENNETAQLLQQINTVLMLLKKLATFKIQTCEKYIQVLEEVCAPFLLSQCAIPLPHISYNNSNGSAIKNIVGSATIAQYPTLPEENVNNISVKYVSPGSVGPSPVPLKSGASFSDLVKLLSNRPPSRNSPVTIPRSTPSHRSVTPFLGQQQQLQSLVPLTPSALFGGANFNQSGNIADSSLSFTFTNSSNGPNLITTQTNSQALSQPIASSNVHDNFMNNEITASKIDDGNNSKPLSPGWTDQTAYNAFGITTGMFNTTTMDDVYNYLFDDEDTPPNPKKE
UniProt P70340: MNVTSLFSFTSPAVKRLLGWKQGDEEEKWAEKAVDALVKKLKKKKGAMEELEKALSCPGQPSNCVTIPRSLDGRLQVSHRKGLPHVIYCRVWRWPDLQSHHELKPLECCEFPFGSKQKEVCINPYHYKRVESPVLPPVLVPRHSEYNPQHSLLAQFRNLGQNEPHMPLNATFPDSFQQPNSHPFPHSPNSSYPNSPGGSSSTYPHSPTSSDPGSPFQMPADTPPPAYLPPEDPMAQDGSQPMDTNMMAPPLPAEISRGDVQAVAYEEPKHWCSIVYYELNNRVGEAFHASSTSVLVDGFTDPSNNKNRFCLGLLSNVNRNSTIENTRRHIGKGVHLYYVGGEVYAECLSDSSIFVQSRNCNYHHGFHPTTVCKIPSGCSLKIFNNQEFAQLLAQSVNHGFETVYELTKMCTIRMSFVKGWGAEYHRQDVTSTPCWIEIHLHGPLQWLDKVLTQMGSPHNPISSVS
UniProt P97454: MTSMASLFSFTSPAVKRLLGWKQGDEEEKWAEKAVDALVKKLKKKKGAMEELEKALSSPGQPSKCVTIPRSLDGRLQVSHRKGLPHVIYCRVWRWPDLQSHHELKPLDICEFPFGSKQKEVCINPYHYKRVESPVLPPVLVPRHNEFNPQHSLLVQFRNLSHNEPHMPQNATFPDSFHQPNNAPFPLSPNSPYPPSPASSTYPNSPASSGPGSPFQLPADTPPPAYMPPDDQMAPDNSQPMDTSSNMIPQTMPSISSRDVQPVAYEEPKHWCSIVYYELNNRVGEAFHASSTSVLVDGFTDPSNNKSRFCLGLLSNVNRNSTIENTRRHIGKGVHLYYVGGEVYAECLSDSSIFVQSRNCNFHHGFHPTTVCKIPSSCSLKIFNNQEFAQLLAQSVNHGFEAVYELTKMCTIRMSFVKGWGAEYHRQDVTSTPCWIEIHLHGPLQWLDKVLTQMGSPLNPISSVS
UniProt P97471, residues 252-551: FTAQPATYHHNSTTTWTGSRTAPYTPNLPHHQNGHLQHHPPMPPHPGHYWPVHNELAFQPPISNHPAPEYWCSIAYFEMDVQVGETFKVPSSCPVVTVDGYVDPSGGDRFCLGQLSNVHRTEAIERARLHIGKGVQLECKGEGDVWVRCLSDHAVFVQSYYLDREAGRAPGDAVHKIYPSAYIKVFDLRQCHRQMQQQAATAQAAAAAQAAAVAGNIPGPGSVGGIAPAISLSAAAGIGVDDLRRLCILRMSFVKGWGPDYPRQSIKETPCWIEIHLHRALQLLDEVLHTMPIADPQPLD

Key:
[1] = target: mouse SMAD1 C-domain bait (GAL4DBD fusion) (mouse) (UniProt P04386+P70340); experiment: yeast two-hybrid
[2] = target: mouse SMAD5 C-domain bait (GAL4DBD fusion) (mouse) (UniProt P04386+P97454); experiment: yeast two-hybrid

binding [1]: binds
binding [2]: binds
Substance: TH72 prey protein (GAL4TAD fused in-frame to a partial SMAD4 starting at amino acid 252) (from UniProt P97471 252-551)
